Some results were stated once for a whole list of compounds, not compound by compound.
Tested on: Wnt/β-catenin promoter
Experiment: Wnt reporter luciferase assay in Wnt reporter HEK293A cells
Format: cell-based
Conditions: treated at 200, 20, 2 or 0.2 μg/mL, DMSO negative control, FIG. 1-3

Compound	Wnt/β-catenin signaling amplification as compared to the untreated negative control group [fold]
C/C=C(\C)C(=O)OC1c2c(ccc3ccc(=O)oc23)OC(C)(C)C1OC(=O)/C(C)=C/C (stereo not drawn) [Praeruptorin B]	≥ 2
CC(=O)OCC1=CO[C@@H](OC(=O)CC(C)C)[C@H]2C1=C[C@H](OC(=O)CC(C)C)[C@]2(O)CCl [Valechlorine]	≥ 2
Engeletin	≥ 2

— patent US20230330120A1, “COMPOSITION FOR PREVENTING HAIR LOSS OR PROMOTING HAIR REGROWTH” (LG HOUSEHOLD & HEALTH CARE LTD., priority 2020, published 2023)
